In paper PMC8543820:
Results are given in words; binding and its absence hold for the method and conditions named. In cells and extracts the contact can be indirect. Some results given as binding are weak or reduced against the parent protein; the word gives no strength.

Chains of the proteins cited; added tags and fusions are not shown. Lines headed by an entry give the natural chain unless they say otherwise; changes in a name come on top.
UniProt P04198: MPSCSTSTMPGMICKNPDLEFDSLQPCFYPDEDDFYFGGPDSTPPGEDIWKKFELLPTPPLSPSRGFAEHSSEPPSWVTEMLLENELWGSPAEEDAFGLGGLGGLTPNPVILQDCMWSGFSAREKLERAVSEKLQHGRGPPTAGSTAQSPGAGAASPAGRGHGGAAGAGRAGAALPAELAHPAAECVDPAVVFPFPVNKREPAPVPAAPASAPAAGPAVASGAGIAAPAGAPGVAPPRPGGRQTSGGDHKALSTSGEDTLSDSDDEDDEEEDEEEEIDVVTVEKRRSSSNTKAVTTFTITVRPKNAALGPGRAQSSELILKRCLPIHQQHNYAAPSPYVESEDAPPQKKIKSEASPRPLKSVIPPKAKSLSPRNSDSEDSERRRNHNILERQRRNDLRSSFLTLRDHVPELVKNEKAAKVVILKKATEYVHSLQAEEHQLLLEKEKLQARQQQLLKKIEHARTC
UniProt P61244: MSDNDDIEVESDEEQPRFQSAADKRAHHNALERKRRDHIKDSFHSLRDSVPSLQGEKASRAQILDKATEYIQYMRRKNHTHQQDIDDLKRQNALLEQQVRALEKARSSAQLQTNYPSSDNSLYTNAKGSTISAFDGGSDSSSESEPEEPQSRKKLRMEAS

Experiments:
[1] = biological target: HA-N-MYC (wild-type) (human) (UniProt P04198); assay: co-IP; HEK293 transiently transfected with tagged expression vectors, doxycycline 48 h; lysis in 20 mM HEPES pH 7.9, 180 mM NaCl, 1.5 mM MgCl2, 10% glycerol, 0.2% Nonidet P40, benzonase; IP with HA-coupled magnetic beads or FLAG-coupled agarose beads at 4 °C; Western blot
HA-N-MYC-P44L (human) [2] = biological target: HA-N-MYC-P44L (human) (UniProt P04198); assay: as above
[3] = biological target: HA-N-MYC (wild-type) (human) (UniProt P04198); assay: co-IP; immunoprecipitates of HA-N-MYC from stably transfected HEK293 pSB-ETiE-HA-MYCN-WT or -P44L lysates for the PTM analysis (RIPA buffer); immunoblot for MAX
HA-N-MYC-P44L (human) [4] = biological target: HA-N-MYC-P44L (human) (UniProt P04198); assay: as above

| binding [1] | binding (HA-N-MYC-P44L (human) [2]) | binding [3] | binding (HA-N-MYC-P44L (human) [4]) | Substance |
| --- | --- | --- | --- | --- |
| binds | binds |  |  | FLAG-MAX (wild-type) (from UniProt P61244 1-160) |
| binds |  |  |  | FLAG-MAX-R60Q (from UniProt P61244 1-160) |
|  |  | binds | binds | MAX (endogenous) (from UniProt P61244 1-160) |
